The target of this assay is T1, Sialin (in NRK cells) (rat (endogenous in NRK)) (UniProt Q5Q0U0).
T1 sequence: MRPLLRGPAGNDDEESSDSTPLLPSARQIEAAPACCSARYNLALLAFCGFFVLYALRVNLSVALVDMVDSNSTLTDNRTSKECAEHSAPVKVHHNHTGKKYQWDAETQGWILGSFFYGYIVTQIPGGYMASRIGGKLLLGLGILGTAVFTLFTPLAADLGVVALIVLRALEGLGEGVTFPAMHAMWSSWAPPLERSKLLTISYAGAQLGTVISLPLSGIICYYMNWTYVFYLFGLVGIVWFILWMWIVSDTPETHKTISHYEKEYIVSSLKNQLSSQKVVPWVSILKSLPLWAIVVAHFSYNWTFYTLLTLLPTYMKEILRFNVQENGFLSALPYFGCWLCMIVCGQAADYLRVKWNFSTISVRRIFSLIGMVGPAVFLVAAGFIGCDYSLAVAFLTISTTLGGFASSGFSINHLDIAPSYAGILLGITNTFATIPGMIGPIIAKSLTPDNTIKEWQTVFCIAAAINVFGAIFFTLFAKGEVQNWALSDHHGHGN
The assay can be described thus: proximity ligation.

By UniProt entry, the sequences of proteins in these tests, tags left out. Where a name states a change or a piece, a line headed by the entry shows the natural chain unless it says otherwise.
UniProt P00787: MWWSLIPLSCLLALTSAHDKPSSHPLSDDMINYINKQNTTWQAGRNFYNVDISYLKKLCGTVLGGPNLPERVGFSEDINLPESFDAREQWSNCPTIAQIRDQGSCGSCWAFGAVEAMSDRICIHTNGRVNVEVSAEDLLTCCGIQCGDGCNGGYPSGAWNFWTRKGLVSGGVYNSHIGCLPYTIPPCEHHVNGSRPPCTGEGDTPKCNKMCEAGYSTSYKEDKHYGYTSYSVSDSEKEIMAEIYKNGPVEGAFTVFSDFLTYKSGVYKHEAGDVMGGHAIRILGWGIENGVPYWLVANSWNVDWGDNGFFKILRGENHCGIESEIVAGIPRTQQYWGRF

No constants are given. Whether binding was seen depends on the method and setting. In cells and extracts the contact can be indirect. Binding can be weak; no strength is given.

Turning to “cathepsin B (in NRK cells) (from UniProt P00787) (enzyme)”, the binding result is “binds”.
